In article PMC10854748:
These are yes or no findings as the source states them, for the method shown. Binding seen in cells or lysates may run through a third protein. These calls come from enrichment with a bait or labelling near it, and not all partners need be listed. Tags and fused reporters may be left off the sequences shown.

Biological target: N-terminally FLAG-HA epitope-tagged human HIRIP3 (e-HIRIP3) (human) (UniProt Q9BW71)
Experiment: affinity purification with mass spectrometry; tandem anti-FLAG then anti-HA immunoaffinity purification of e-HIRIP3 from HeLa cytosolic, soluble nuclear and MNase-solubilised chromatin extracts; washes in TGEN-150 (20 mM Tris-HCl pH 7.65, 150 mM NaCl); silver staining and Orbitrap mass spectrometry

- binding: binds
B1: AMP deaminase (AMPD2) (enzyme, UniProt Q01433 1-825)
chain: MASYPSGSGKPKAKYPFKKRASLQASTAAPEARGGLGAPPLQSARSLPGPAPCLKHFPLDLRTSMDGKCKEIAEELFTRSLAESELRSAPYEFPEESPIEQLEERRQRLERQISQDVKLEPDILLRAKQDFLKTDSDSDLQLYKEQGEGQGDRSLRERDVLEREFQRVTISGEEKCGVPFTDLLDAAKSVVRALFIREKYMALSLQSFCPTTRRYLQQLAEKPLETRTYEQGPDTPVSADAPVHPPALEQHPYEHCEPSTMPGDLGLGLRMVRGVVHVYTRREPDEHCSEVELPYPDLQEFVADVNVLMALIINGPIKSFCYRRLQYLSSKFQMHVLLNEMKELAAQKKVPHRDFYNIRKVDTHIHASSCMNQKHLLRFIKRAMKRHLEEIVHVEQGREQTLREVFESMNLTAYDLSVDTLDVHADRNTFHRFDKFNAKYNPIGESVLREIFIKTDNRVSGKYFAHIIKEVMSDLEESKYQNAELRLSIYGRSRDEWDKLARWAVMHRVHSPNVRWLVQVPRLFDVYRTKGQLANFQEMLENIFLPLFEATVHPASHPELHLFLEHVDGFDSVDDESKPENHVFNLESPLPEAWVEEDNPPYAYYLYYTFANMAMLNHLRRQRGFHTFVLRPHCGEAGPIHHLVSAFMLAENISHGLLLRKAPVLQYLYYLAQIGIAMSPLSNNSLFLSYHRNPLPEYLSRGLMVSLSTDDPLQFHFTKEPLMEEYSIATQVWKLSSCDMCELARNSVLMSGFSHKVKSHWLGPNYTKEGPEGNDIRRTNVPDIRVGYRYETLCQELALITQAVQSEMLETIPEEAGITMSPGPQ
